Whole data set: some 33,000 sequences, median “E-score (-0.5 to 0.5)” near -0.015, cut for the highest 2% near 0.3. This is one part of the list.
biological target: T1, Abf1 (UniProt P14164); assay: PBM E-score (8-mer binding enrichment) (E-score (-0.5 to 0.5)); higher = stronger / more preferred TF binding; settings: protein concentration: 200 nM; construct: GST-full length
T1 sequence: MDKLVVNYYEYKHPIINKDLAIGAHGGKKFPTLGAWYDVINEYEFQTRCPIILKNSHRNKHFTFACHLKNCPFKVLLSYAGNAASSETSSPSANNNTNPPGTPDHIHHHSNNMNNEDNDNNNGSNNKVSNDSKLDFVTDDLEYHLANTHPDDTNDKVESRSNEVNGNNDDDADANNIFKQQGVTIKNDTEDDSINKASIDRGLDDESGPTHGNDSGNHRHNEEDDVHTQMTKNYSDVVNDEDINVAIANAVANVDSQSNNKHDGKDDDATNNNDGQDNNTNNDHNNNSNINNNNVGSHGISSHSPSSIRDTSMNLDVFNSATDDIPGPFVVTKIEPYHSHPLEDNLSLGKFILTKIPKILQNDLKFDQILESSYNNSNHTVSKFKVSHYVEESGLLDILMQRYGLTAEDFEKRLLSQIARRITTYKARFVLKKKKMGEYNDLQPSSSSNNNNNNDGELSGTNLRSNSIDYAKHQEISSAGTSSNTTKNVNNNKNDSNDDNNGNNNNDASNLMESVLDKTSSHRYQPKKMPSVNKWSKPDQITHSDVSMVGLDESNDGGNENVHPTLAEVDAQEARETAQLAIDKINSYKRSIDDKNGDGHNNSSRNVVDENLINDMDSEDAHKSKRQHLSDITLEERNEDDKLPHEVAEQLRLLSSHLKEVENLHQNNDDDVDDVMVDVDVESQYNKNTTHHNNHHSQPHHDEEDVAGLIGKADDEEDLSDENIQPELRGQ
How it was run: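 Yeast transcription factors carrying a GST tag, as full-length proteins or DNA-binding domains, were produced by PURExpress in vitro transcription/translation. About 100-200 nM protein was applied to universal all-10-mer Agilent arrays, double-stranded by primer extension on fresh or once-stripped slides. Bound protein was detected with fluorescent anti-GST, and scans were normalised with masliner. The Universal PBM Analysis Suite gave each ungapped eight-base word, pooled with its reverse complement, an E-score, a modified Wilcoxon-Mann-Whitney statistic.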

| Sequence | PBM E-score |
| --- | --- |
| CATCACTA | 0.351 |
| GAATCATA | -0.0285 |
| AAAAGTGC | -0.0464 |
| CTAAAGAG | -0.0578 |
| CTAGACGC | 0.022 |
| CATAGCAC | 0.0139 |
| AACATGTG | 0.0961 |
| CGGTGACA | 0.399 |
| CCCCGACG | 0.106 |
| CTAAACAG | 0.021 |
| AACCCGCG | 0.0385 |
| CCGTACCA | 0.303 |
| CGTTACCA | 0.192 |
| ATTACTTA | 0.141 |
| CTTATTTC | 0.192 |
| GAACGACA | 0.296 |
| GCCTCCCA | -0.0682 |
| GGCAGGAC | -0.221 |
| CATAATGC | -0.136 |
| CACTGTAC | -0.177 |
| ACGTTGCT | 0.105 |
| GCACCGAC | 0.135 |

As entered above:
Entry for CCCCGACG under PBM E-score: 0.106
Entry for AACATGTG under PBM E-score: 0.0961
Entry for CTAAACAG under PBM E-score: 0.021

Continuation.

| Sequence | PBM E-score |
| --- | --- |
| AGTTTTTG | 0.0548 |
| GATTTACA | 0.206 |
| AGATAACG | 0.118 |
| GGATTAGA | -0.0113 |
| CACTACGA | 0.126 |
| GAAGCTGA | -0.0959 |
| CGACGGCA | 0.174 |
| AAGCTCTA | 0.0174 |
| ATCACGGG | 0.163 |
| CCGAATTC | -0.0501 |
| GGTAATTA | -0.00628 |
| GACATGAC | 0.223 |
| GGAAGTAA | -0.082 |
| CGCTGGAA | -0.226 |
| GCGTGACA | 0.369 |
| CTGCTATA | 0.00993 |
| CCTAAGCA | -0.0178 |
| CATTCCCC | -0.057 |
| CGGTTTTA | -0.11 |
| ACCATGTC | 0.137 |
| CAATCGAG | -0.191 |
| GCGCTGCC | -0.197 |

| Sequence | PBM E-score |
| --- | --- |
| GAAATGCA | 0.0956 |
| CGCCTTAC | 0.0282 |
| GAAAAGAC | -0.00769 |
| CAAAAGGG | -0.111 |
| TCTGCTCA | -0.0679 |
| GAAAAAAA | 0.102 |
| CCGGTTTC | -0.097 |
| AGGCCCTG | -0.252 |
| GACAAATC | 0.15 |
| CTAAGACA | -0.015 |
| GACATTCA | 0.167 |
| CGCGCTGA | -0.11 |
| AGCAGTCC | -0.183 |
| CCGTATGA | 0.408 |
| GTACACGA | 0.362 |
| TTACTGAA | 0.0616 |
| ATAGATAC | -0.0386 |
| CCACGTCC | -0.0859 |
| GGCGTACA | 0.0819 |
| ATATTCAC | 0.107 |
| ACGACTTC | 0.242 |
| CTGGGCAA | -0.172 |

| Sequence | PBM E-score |
| --- | --- |
| ACTGGTAG | -0.192 |
| CAATTTAA | 0.167 |
| CACTTATC | 0.155 |
| ACATCCGA | -0.131 |
| TAATGACA | 0.376 |
| ACACAATG | -0.0799 |
| AAGACGCG | -0.245 |
| CAAGGGGC | -0.312 |
| GAGGCACC | -0.286 |
| ACCTGTTG | -0.0163 |
| CCGCTACG | 0.0224 |
| CGGTTCTC | -0.114 |
| CGATCGCG | 0.242 |
| CGTGTTGC | -0.00721 |
| AGCAAACT | 0.0536 |
| ACGGACAA | 0.202 |
| AGTAACTG | 0.00145 |
| AAAATAGC | -0.0687 |
| CAGCCTCA | 0.00892 |
| ACTTTTTC | 0.161 |
